# Measurements published in the supplement of paper PMC12595434, “Development of retinoid nuclear receptor pathway antagonists through targeting aldehyde dehydrogenase 1A3” (iScience, 2025).
# Chains of the proteins cited; added tags and fusions are not shown. Lines headed by an entry give the natural chain unless they say otherwise; changes in a name come on top.
# UniProt Q5SRE5: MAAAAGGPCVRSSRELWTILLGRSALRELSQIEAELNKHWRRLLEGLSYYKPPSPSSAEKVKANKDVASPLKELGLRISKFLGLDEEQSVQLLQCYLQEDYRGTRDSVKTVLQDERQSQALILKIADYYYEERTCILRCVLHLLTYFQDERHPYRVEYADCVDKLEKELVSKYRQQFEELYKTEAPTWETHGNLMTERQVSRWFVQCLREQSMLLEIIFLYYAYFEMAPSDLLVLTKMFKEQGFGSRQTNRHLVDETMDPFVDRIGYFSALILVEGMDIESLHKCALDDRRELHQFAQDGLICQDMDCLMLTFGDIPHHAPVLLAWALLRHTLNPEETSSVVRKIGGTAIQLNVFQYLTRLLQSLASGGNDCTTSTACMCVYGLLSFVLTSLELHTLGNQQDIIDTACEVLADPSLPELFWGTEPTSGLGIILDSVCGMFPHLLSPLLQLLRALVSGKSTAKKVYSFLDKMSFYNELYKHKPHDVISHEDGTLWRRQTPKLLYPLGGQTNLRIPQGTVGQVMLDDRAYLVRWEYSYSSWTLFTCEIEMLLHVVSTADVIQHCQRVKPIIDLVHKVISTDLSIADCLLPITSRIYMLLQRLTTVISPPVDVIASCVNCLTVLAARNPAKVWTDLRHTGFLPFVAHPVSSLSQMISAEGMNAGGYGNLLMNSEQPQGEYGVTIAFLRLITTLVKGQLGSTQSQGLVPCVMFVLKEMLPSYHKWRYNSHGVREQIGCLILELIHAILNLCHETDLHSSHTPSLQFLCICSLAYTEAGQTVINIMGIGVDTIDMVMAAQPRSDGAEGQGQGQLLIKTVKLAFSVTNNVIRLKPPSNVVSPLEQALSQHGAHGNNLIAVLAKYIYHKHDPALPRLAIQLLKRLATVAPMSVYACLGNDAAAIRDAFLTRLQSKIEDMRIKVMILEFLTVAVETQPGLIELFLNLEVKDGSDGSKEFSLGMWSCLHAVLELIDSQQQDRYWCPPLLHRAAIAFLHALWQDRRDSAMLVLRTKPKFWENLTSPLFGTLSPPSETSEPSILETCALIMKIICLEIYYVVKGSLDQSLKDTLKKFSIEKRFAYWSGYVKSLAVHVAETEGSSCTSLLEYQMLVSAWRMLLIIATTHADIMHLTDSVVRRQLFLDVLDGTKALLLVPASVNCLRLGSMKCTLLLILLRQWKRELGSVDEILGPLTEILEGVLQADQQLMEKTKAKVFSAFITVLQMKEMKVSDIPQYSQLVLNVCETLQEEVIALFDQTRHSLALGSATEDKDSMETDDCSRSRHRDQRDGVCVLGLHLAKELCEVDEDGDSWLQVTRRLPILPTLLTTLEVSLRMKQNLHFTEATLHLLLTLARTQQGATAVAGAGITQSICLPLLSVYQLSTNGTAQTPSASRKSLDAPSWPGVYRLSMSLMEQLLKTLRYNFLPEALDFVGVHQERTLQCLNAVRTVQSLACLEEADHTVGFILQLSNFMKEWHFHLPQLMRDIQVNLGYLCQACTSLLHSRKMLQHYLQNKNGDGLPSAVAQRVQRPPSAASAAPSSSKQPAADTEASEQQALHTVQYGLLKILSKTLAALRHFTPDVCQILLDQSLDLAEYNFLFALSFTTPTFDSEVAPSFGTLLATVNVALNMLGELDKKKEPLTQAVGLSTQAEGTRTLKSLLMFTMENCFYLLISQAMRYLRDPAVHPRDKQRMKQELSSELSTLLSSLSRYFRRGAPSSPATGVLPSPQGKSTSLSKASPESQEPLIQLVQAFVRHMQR
# UniProt Q5JU69: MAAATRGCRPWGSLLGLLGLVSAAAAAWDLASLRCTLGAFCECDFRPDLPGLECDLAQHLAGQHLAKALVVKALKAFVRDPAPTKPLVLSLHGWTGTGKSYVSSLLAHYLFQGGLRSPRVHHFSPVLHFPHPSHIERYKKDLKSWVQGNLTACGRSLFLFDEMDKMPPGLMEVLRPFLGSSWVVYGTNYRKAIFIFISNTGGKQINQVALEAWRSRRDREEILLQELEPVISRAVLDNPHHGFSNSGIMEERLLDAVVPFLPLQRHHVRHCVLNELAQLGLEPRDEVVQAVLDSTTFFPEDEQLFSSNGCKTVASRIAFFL
# UniProt Q5TH69: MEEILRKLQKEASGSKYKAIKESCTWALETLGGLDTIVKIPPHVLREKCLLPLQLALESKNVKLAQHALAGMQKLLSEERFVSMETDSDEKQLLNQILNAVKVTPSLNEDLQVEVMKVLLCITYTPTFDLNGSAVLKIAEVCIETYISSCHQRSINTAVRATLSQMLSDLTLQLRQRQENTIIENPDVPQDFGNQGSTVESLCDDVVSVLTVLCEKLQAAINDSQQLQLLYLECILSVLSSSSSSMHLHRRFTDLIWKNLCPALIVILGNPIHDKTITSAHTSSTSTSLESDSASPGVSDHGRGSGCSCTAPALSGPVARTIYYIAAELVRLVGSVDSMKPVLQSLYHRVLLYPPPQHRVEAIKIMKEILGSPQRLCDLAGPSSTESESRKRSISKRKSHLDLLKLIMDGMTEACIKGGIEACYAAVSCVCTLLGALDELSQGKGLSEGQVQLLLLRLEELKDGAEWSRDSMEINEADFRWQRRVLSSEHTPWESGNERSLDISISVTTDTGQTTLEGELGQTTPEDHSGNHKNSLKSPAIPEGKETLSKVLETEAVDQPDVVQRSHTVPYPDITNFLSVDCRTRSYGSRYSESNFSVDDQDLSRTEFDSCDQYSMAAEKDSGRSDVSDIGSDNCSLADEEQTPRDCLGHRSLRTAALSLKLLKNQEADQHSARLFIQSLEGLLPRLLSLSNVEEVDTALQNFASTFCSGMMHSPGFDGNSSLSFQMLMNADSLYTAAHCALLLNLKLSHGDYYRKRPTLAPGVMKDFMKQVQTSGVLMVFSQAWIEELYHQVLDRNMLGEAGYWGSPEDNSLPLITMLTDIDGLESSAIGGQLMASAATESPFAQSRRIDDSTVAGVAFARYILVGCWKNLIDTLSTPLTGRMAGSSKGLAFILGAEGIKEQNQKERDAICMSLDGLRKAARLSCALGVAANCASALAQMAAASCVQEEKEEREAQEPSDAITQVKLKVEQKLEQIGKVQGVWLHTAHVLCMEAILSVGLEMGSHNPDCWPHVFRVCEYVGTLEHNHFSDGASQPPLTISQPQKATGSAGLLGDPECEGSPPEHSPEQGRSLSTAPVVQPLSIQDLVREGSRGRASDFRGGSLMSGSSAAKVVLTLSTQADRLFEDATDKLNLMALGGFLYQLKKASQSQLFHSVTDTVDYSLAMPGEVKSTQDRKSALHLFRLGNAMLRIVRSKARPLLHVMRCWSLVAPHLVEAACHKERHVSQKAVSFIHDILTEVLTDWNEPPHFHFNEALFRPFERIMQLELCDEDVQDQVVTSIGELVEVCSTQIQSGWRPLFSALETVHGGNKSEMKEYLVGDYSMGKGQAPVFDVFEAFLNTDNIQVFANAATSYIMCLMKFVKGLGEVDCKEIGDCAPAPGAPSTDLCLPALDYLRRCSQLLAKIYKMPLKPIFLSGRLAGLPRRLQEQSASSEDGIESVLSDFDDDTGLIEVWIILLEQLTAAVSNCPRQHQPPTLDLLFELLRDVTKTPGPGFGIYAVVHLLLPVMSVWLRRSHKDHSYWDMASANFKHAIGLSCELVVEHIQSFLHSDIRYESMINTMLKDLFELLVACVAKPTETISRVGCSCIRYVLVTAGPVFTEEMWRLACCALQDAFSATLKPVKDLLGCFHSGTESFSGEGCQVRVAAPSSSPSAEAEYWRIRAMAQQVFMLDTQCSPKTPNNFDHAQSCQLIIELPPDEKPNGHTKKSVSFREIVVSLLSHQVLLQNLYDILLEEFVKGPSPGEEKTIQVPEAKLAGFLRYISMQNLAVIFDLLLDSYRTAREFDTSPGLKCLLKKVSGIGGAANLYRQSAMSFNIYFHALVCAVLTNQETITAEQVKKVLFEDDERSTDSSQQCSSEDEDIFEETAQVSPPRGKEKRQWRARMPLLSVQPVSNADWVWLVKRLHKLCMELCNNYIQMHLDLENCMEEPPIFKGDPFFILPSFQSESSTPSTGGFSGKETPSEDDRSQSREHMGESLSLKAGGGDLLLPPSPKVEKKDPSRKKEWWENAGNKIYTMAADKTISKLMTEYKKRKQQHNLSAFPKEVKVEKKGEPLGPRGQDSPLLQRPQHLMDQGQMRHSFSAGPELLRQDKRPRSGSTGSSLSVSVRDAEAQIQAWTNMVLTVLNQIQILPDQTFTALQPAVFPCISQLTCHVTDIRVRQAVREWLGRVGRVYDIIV
# UniProt Q6IA86: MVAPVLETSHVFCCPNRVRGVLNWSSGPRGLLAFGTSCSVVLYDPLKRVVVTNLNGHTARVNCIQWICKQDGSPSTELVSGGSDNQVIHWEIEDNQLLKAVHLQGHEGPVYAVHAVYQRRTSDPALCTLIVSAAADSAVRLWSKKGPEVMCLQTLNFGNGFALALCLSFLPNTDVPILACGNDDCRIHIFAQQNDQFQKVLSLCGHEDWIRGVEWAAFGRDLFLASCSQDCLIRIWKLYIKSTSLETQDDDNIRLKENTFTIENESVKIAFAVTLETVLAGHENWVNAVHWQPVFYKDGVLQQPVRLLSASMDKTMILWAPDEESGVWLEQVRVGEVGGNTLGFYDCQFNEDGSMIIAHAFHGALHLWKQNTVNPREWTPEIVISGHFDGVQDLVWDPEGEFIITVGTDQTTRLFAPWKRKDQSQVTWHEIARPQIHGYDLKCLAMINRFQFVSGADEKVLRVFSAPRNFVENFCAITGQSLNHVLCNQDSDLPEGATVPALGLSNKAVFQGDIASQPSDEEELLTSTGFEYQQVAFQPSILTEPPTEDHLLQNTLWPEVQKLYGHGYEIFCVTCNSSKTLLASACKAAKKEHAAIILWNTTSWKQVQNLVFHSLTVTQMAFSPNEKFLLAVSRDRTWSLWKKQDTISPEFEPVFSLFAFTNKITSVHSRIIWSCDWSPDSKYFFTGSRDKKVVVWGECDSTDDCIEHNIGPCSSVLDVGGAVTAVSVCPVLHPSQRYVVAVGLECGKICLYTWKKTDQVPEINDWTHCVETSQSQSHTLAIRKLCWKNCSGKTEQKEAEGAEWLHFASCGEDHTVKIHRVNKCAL
# UniProt Q674X7: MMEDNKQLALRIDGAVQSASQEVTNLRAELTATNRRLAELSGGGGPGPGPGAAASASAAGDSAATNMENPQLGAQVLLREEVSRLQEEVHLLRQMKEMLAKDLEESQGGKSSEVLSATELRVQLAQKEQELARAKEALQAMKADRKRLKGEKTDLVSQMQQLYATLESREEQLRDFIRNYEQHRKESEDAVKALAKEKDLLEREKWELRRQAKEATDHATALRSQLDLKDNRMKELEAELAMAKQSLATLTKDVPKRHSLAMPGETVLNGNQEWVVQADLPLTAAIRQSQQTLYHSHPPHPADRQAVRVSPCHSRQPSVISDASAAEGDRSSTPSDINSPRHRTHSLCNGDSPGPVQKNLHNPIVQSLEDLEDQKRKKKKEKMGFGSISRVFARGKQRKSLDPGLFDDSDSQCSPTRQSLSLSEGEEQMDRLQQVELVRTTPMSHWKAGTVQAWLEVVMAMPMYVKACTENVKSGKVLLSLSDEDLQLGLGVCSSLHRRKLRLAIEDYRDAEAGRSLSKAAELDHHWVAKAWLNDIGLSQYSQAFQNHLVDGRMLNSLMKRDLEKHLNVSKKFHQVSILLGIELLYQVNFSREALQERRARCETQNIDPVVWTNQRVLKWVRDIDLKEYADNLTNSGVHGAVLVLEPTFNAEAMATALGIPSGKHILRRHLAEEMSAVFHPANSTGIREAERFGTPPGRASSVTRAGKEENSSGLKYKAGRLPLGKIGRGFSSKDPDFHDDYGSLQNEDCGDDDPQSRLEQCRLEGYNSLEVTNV
# UniProt Q5J8M3, whole entry: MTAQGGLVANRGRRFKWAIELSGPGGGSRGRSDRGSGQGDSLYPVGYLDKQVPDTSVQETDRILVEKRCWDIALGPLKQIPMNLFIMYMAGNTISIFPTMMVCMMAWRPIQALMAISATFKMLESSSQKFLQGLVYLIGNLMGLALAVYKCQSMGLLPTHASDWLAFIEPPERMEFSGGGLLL
# UniProt Q5JVF3: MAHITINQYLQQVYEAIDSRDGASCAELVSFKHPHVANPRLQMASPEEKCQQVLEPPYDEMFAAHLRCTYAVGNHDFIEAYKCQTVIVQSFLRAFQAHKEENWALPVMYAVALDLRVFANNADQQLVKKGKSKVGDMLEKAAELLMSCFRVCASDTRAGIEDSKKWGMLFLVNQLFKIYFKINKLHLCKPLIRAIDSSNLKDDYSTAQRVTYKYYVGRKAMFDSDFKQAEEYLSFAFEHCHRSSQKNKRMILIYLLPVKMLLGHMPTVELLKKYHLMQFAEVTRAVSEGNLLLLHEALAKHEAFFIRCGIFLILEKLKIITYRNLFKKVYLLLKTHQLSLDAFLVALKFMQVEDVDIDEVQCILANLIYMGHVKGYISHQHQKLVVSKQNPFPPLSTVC
# UniProt Q5U5X0: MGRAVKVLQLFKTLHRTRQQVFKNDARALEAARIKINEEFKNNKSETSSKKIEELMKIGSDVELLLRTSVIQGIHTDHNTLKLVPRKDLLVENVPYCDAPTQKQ
# This is one part of the list. Single values of this set are uncertain.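 Many melting curves are irregular; where none melted, Tm was taken as 64 °C.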
# Compound: CCc1cnccc1C(=O)Nc1cc2c(cc1F)NC(=O)CC2
# Test: melting temperature shift (DMSO Tm minus MBE1-treated Tm) in cellular thermal proteome profiling; higher = less thermal stabilization by MBE1 (negative = stabilized by MBE1)
# Conditions: A375; MBE1 concentration: 100 nM
row,Target,melting temperature shift [°C]
1,PPP2R2D (UniProt Q66LE6),-0.317
2,RPRD2 (UniProt Q5VT52),-0.256
3,NUP188 (UniProt Q5SRE5),0.721
4,RPL7L1 (UniProt Q6DKI1),-0.545
5,NDUFAF5 (UniProt Q5TEU4),-1.07

# Same assay, conditions: A375; MBE1 concentration: 1 uM
row,Target,melting temperature shift [°C]
1,UBAP2 (UniProt Q5T6F2),0.122
2,UniProt Q5JU69,0.287
3,ATL3 (UniProt Q6DD88),0.458
4,LAMTOR1 (UniProt Q6IAA8),0.91
5,TTC27 (UniProt Q6P3X3),-0.389
6,THEM4 (UniProt Q5T1C6),-0.0366
7,RNASEH2B (UniProt Q5TBB1),-0.00941
8,ZMYM4 (UniProt Q5VZL5),-0.679
9,UniProt Q5TH69,1.7
10,PRMT9 (UniProt Q6P2P2),0.208
11,HECTD3 (UniProt Q5T447),0.611
12,ANKRD40 (UniProt Q6AI12),0.113
13,UHRF1BP1 (UniProt Q6BDS2),0.147
14,UniProt Q5TZA2,1.11
15,TAPT1 (UniProt Q6NXT6),-2.34
16,UniProt Q6N043,2.72
17,INTS3 (UniProt Q68E01),-0.615
18,ELP2 (UniProt Q6IA86),-0.316
19,UniProt Q5VWG9,-0.0329

row,Target,melting temperature shift [°C]
1,PDE12 (UniProt Q6L8Q7),0.415
2,UniProt Q674X7,-1.44
3,EMC4 (UniProt Q5J8M3),0.476
4,DHRS7B (UniProt Q6IAN0),0.861
5,YOD1 (UniProt Q5VVQ6),0.495
6,ODF2 (UniProt Q5BJF6),0.617
7,PCID2 (UniProt Q5JVF3),0.118
8,LYRM7 (UniProt Q5U5X0),0.629
9,UniProt Q5SXM2,-0.742
10,PTRF (UniProt Q6NZI2),0.719
11,ACBD5 (UniProt Q5T8D3),-0.558
12,UniProt Q5SNT2,0.122
13,FAM91A1 (UniProt Q658Y4),0.434
14,PPP2R2D (UniProt Q66LE6),0.879
15,RPRD2 (UniProt Q5VT52),-0.404
16,NUP188 (UniProt Q5SRE5),0.287
17,RPL7L1 (UniProt Q6DKI1),-0.102
18,NDUFAF5 (UniProt Q5TEU4),1.14
